According to PubChem BioAssay AID2551 (National Center for Advancing Translational Sciences (NCATS), 2010):
Where “and” joins values, the source holds several entries; their conditions need not be identical. Equal values may be shown once. About 17,000 (5.5%) of roughly 310,000 compounds were called active. Inconclusive means that the source gave no clear call. Such entries were picked first, then a sample of the others. Calls come from the whole dose curve; as a rule, active = well fitted inhibition curve with a large enough effect; inconclusive = small, poorly fitted or top-dose-only effect, or effect the other way; inactive = no such curve, though single readings can be large or run the other way. Where the call is inconclusive, the potency comes from a doubtful curve fit.

Amino acid sequences for entries named in this document (tags omitted). A change or cut given only in a name is not applied to a line headed by its entry.
UniProt P51450: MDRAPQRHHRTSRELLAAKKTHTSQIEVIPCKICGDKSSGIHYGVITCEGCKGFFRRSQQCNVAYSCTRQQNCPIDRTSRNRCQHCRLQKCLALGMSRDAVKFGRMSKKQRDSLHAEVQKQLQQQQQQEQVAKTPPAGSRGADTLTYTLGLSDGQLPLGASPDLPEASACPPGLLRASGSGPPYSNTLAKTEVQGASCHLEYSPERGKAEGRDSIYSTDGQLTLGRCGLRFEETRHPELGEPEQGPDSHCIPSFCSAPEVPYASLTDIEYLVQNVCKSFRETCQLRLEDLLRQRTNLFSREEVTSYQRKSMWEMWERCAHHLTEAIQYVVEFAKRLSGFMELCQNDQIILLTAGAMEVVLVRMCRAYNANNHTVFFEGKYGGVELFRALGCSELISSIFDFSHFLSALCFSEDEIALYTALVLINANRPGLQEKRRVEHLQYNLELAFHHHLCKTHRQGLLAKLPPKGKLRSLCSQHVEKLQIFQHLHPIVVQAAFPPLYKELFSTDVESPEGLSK

Molecular target: Nuclear receptor ROR-gamma (Mus musculus) (UniProt P51450)
Assay: qHTS for inhibitors of ROR gamma transcriptional activity; note: nearly all actives have a fitted effect of over 60% in size
Settings: Drosophila S2 Gal4-RORgamma UAS-luciferase reporter, 20 h; activity change, negative = inhibition: at 53.6 µM (top of the series)
In short: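 Drosophila S2 cells stably expressing Gal4-DBD/mouse RORγ fusion under metallothionein promoter plus UAS-luciferase; compound 1 h, then 700 uM CuSO4 induction for 20 h at ambient temperature; inhibition read as reduced luminescence.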
% is set by controls: 0 for no effect and ±100 for the full control effect; potency is the fitted concentration of half-maximal effect.

Potency, inconclusive:
O=C(Nc1ccc(O)c(-c2nc3ccccc3s2)c1)C1=COCCO1 3.55 µM [activator, full curve, poor fit], CC(C)c1ccc(NC(=O)C(c2ccccc2)N2CC(=O)Nc3ccccc32)cc1 (stereo not given) 22.4 µM [activator, single point], COc1ccc(S(=O)(=O)N/N=C/c2ccc(OCCN3CCOCC3)c(OC)c2)cc1 10 µM [inhibitor, partial curve], O=C(CCN1C(=O)C2C3CCC(C3)C2C1=O)Nc1ccc([N+](=O)[O-])cc1 (stereo not given) 14.1 µM [activator, single point], COc1ccccc1N1CCN(/N=C/c2c(C)nn(-c3ccccc3)c2C)CC1 0.447 µM [activator, full curve, poor fit], Cc1nn(Cc2ccc(Cl)cc2)c(C)c1NC(=O)c1noc2c1CCc1ccccc1-2 14.1 µM [activator, single point], COc1ccc(CNc2ccnc(-c3ccc4c(c3)OCO4)n2)c(OC)c1 20 µM [activator, single point], Cc1cccc(/C(N)=N/OC(=O)CCCc2ccccc2)c1 35.5 µM [inhibitor, single point], CC1(C)Oc2ccc3ccc(=O)oc3c2/C(=C/NNC(N)=O)C1=O 10 µM [inhibitor, partial curve, poor fit], Cc1cc(C)c(C)c(S(=O)(=O)NCC(=O)N2CCCC2)c1C 22.4 µM [inhibitor, single point], O=[N+]([O-])c1cncc([N+](=O)[O-])c1Nc1cccc(O)c1 20 µM [inhibitor, partial curve, poor fit], CC1=C(C)CC(C(=O)NCCCN2CCCC2=O)C(C(=O)O)C1 (stereo not given) 25.1 µM [inhibitor, single point], NC(=O)CC(NC(=O)c1ccc(Br)cc1)c1ccc(NC2CCCCCCC2)c([N+](=O)[O-])c1 (stereo not given) 10 µM [activator, single point], O=C(CSCC(=O)Nc1cccc([N+](=O)[O-])c1)Nc1ccccc1 20 µM [activator, partial curve, poor fit], Cc1ccc(NC(=S)NNC(C)(C)C)cc1 0.1 µM [inhibitor, full curve], CCC(=O)Nc1nnc(-c2ccccn2)o1 35.5 µM [inhibitor, single point], CCCN(CCC)Cc1c(C(=O)N/N=C/C(C)=C\c2ccccc2)nnn1-c1nonc1N 12.6 µM [activator, single point], OCCNc1nc(N2CCCC2)nc(N2CCCC2)n1 8.91 µM [activator, partial curve], Cc1ccc(OCCCn2ccnc2)c(Br)c1 35.5 µM [inhibitor, single point], O=[N+]([O-])c1cccc(Cl)c1NCCNc1ncc(C(F)(F)F)cc1Cl 31.6 µM [activator, single point], COc1ccc2nc(NC(=O)CCN3C(=S)NC(C)(C)CC3C)sc2c1 (stereo not given) 12.6 µM [inhibitor, partial curve], Cc1nc2cnc(Oc3cccc(Cl)c3)nc2n(C[C@H]2CCCO2)c1=O 11.2 µM [activator, partial curve], O=C(/C(=N\O)n1cncn1)c1ccc(Br)cc1Br 31.6 µM [activator, single point], COc1ccc2c(c1)[nH]c1c(=O)n(/N=C/c3ccc(OC)c(COc4ccccn4)c3)cnc12 35.5 µM [activator, single point], O=C(c1cc(-c2ccccc2)nc2ccccc12)N1CCN(c2ccccn2)CC1 12.6 µM [activator, single point], CC1(C)Cc2c(C#N)c(N3CCN(C(=O)c4ccco4)CC3)nc(-c3ccco3)c2CS1 14.1 µM [activator, single point], COc1cc(SC)ccc1C(=O)Nc1c(C)cccc1C 11.2 µM [activator, single point], Cc1nn(-c2nc3ccccc3s2)c(N)c1-c1ccccc1 3.98 µM [inhibitor, single point], O=C(c1ccco1)N1CCN(C2CC(=O)N(c3ccccc3)C2=O)CC1 (stereo not given) 35.5 µM [inhibitor, single point], O=C(C1CCCN(S(=O)(=O)c2ccccc2)C1)N1CCCc2ccccc21 (stereo not given) 11.2 µM [activator, partial curve], CCc1ccc(N2CCN(S(=O)(=O)CC34CCC(CC3=O)C4(C)C)CC2)cc1 (stereo not given) 22.4 µM [activator, single point], CN(C)c1ccc(/C=N/NC(=O)c2ccc3c(c2)OCCO3)cc1 35.5 µM [inhibitor, single point], CC1=CN2C(=N)/C(=C/c3cn(CCCOc4ccccc4C)c4ccccc34)C(=O)N=C2S1 8.91 µM [inhibitor, partial curve], Cc1cccc(C(=O)NCC(=O)OCC(=O)N2CC3(C)CC2CC(C)(C)C3)c1 (stereo not given) 7.94 µM [activator, partial curve], O=C(NNc1c2ccccc2nc2ccccc12)C(O)c1ccccc1 (stereo not given) 17.8 µM [inhibitor, single point], Cn1c(=O)[nH]c(=O)c2c1nc(N1CCCCCC1)n2CC(N)=O 3.55 µM [activator, single point], Nc1nc(-c2ccccc2)c(N=Nc2cccnc2)s1 28.2 µM [inhibitor, single point], O=c1[nH]c2ccccc2cc1CN(c1ccccc1)S(=O)(=O)c1ccccc1 17.8 µM [activator, single point]

Potency, active:
O=C(CCN1CCN(c2ccccc2)CC1)N/N=C/c1ccccc1O 2 µM, O=c1[nH]c(Nc2nc3ccccc3o2)nc2c1CCCC2 3.98 µM, CC(C)(C)C(=O)NC(=S)NNC(=O)C(c1ccccc1)c1ccccc1 2.82 µM, S=C(NCCC1=CCCCC1)Nc1ccc(Cl)cc1 3.55 µM, COc1ccccc1C(=O)NC(=S)Nc1cccnc1Cl 10 µM, C/C=N\NC(=O)COc1cc(C)ccc1C 12.6 µM, CN1C(=O)/C(=C/c2ccccc2OCc2ccccc2)NC1=S 7.08 µM, Cc1ccc(-c2sc(C(=O)NN)c(C)c2C#N)cc1 4.47 µM, Cc1cccc(NC(=S)NCc2ccccc2Cl)c1C 5.01 µM, CC(C)Oc1ccc(CNC(=S)N/N=C/c2cccnc2)cc1 3.98 µM, COc1ccc(-c2nnc(NC(=O)c3ccc(S(=O)(=O)N4COCC4(C)C)cc3)o2)cc1 0.224 µM, Oc1ccc(CN2CCc3ccccc3C2)c2cccnc12 1 µM, CCOC(=O)C1(Cc2ccccc2)CCCN(Cc2ccccn2)C1 (stereo not given) 12.6 µM

Activity change, negative = inhibition, inactive:
O=C(Nc1ccc2oc(-c3cccnc3)nc2c1)c1ccc(Br)o1 36%, CC(C)Oc1ccc(CNC(=O)Cn2c(=O)oc3ccccc32)cc1 15.2%, O=C(Cc1ccccc1)Nc1ccc(CN2CCOCC2)cc1 -29.7%, COc1ccc(S(=O)(=O)NCc2cc(-c3ccccc3Cl)no2)cc1 12.1%, COC(=O)[C@H](Cc1ccccc1)NC(=O)NCCc1ccc(F)cc1 11.2%, O=C(Nc1ccc2oc(-c3ccncc3)nc2c1)c1ccccc1F -0.232%, CC(=O)NN1C(=O)c2ccccc2NC1c1ccco1 (stereo not given) 1.26%, COC(=O)[C@@H]1CCCN1C(=O)c1cc(COc2cccc3cccnc23)on1 -12.3%, Cc1ccc(NC(=O)C2COc3ccccc3O2)c(C)c1 (stereo not given) 8.48%, CC(C)NC(=O)N1CC[C@@]2(CCCN(C(=O)Oc3ccccc3)C2)C1 -15.4%, COC(=O)c1c(N2C(=O)CCC2=O)sc2c1CCCC2 -14.3%, N#C/C(=C\c1ccc(Sc2nc3ccccc3[nH]2)o1)c1ccccc1 -17.6%, O=C(N/N=C/c1cn[nH]c1-c1ccccc1)c1ccco1 -25.3%, CC(=O)Nc1c(O)nc(SCC(=O)Nc2c(C)cccc2C)[nH]c1=O 14.2%, COC(C[C@H]1O[C@H]1[C@H](O)[C@@H](C)OCc1ccccc1)OC -26.4%, COc1ccc(NC(=O)c2csc3c2CCCC3)cc1 26.9%, N#Cc1cc(-c2ccc(Cl)cc2)cnc1Sc1ccc(F)cc1 -4.63%, COc1ccc(S(=O)(=O)N2CCCC(C(=O)NC3CC3)C2)cc1Cl (stereo not given) -2.43%, Cc1cnc(NC(=O)Nc2ccc(OCc3ccccc3)cc2)c(Br)c1 32.2%, COc1ccc(O[C@H]2C=C[C@@H](c3ccccc3)O[C@H]2COC(=O)CC/C(C)=N\O[C@@H](C)c2cn([C@H](CO)Cc3ccccc3)nn2)cc1 -28.7% [at 10 µM] and -0.119% [at 10 µM], COC(=O)c1cc2n(n1)CCN(Cc1ccc(OC)cc1)C2=O 13.1%, COc1cccc(/C=C/c2n[nH]c(=O)c(C#N)c2C)c1 -39.8%, C#CC1(NC(=O)N(C)C)CCCCC1 -9.99%, COC(=O)[C@@]1(Cc2ccc(F)cc2)[C@H]2c3cc(C(=O)N4CCCC4)n(Cc4ccc(S(C)(=O)=O)cc4)c3C[C@H]2CN1C(=O)c1ccccc1 39.7%
